The values that follow come from paper PMC11163727.

Sequences of proteins named here, by UniProt entry; tags and fusion partners are left off. Residues count along the entry.
UniProt P08174, residues 35-353: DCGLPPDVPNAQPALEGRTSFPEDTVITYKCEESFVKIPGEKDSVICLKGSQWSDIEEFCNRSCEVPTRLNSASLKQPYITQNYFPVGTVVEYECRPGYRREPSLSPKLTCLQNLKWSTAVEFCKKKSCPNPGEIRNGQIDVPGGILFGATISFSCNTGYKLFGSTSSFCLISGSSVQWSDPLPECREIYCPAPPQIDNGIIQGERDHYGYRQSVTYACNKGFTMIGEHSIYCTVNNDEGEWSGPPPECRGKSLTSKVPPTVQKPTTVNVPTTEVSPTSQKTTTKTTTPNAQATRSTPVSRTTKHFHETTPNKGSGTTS
UniProt Q9UDY2: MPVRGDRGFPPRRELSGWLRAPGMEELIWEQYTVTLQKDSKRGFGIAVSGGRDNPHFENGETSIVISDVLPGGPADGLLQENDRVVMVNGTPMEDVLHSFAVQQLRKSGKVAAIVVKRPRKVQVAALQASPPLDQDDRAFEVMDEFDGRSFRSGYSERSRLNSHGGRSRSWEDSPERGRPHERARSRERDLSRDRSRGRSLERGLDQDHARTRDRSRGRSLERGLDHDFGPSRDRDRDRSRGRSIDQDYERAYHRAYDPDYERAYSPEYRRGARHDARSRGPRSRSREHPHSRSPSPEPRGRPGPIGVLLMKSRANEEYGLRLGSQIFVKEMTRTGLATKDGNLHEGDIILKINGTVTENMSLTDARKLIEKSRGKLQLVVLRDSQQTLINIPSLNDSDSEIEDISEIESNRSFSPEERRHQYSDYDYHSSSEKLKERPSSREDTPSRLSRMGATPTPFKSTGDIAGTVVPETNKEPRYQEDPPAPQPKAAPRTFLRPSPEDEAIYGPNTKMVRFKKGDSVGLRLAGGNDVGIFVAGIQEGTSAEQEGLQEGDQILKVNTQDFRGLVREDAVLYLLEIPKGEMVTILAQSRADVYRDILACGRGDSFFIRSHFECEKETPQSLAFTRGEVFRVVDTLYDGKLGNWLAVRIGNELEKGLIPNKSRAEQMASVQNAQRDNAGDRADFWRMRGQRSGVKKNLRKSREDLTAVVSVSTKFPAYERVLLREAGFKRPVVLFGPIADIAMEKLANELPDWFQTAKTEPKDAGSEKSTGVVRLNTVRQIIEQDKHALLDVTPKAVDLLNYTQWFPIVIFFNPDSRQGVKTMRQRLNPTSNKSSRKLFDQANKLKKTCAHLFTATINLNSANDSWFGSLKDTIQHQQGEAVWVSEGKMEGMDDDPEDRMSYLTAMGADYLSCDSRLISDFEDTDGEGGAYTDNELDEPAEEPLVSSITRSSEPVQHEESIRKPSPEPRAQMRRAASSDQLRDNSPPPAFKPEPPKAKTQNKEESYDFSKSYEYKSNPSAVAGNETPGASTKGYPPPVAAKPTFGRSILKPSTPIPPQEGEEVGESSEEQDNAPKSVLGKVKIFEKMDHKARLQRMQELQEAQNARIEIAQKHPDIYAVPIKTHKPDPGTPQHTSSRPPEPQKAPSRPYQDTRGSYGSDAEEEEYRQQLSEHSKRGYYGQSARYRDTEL

Results are given in words; binding and its absence hold for the method and conditions named. In cells and extracts the contact can be indirect. These calls come from enrichment with a bait or labelling near it, and not all partners need be listed.

The target of the assay is CD55 (complement decay-accelerating factor), endogenous in CP70 cells (human (endogenous in CP70)) (UniProt P08174). The experiment in a line: affinity purification with mass spectrometry; CD55 immunoprecipitated (3 ug CD55 antibody, overnight 4 C, protein A/G agarose) from the nuclear fraction of CP70 cells (NE-PER kit); SDS-PAGE, in-gel digestion, LC-MS/MS.

Turning to “Tight Junction Protein 2 (TJP2) (from UniProt Q9UDY2 1-1190)”, the binding entry is given as “binds”.
